Data reported in PMC4752451.
No constants are given. Whether binding was seen depends on the method and setting. In cells and extracts the contact can be indirect. Binding calls can cover weak binding; strength is not graded here.

By UniProt entry, the sequences of proteins in these tests, tags left out. Where a name states a change or a piece, a line headed by the entry shows the natural chain unless it says otherwise.
UniProt P33076: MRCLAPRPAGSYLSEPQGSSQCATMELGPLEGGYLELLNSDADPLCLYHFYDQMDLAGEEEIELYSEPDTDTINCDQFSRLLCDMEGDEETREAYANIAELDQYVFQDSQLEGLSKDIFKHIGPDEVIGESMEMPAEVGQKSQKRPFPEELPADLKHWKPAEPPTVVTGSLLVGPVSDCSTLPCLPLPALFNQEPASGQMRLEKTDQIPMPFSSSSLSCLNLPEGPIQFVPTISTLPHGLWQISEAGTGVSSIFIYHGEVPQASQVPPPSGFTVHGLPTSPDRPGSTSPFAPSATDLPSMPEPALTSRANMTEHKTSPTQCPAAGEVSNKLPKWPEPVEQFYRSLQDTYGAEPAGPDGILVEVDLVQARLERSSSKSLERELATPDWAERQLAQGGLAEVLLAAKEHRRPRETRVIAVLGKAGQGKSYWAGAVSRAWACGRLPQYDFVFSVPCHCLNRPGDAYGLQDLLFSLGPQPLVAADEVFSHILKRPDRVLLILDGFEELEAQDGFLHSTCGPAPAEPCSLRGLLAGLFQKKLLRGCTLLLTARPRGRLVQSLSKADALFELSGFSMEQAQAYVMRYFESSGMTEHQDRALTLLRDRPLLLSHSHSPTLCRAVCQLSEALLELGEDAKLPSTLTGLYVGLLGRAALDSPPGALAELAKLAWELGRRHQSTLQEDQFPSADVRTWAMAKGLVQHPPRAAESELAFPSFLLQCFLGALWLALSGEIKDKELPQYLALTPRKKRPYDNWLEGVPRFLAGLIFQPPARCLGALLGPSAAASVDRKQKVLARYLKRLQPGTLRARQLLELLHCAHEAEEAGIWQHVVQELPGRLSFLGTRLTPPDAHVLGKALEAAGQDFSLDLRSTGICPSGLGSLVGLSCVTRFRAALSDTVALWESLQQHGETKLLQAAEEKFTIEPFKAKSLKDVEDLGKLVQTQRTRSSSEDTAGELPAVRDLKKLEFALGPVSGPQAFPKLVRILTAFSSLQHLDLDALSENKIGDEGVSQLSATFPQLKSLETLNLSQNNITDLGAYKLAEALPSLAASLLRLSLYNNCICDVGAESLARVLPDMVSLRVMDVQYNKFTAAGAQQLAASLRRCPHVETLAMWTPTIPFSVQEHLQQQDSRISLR
UniProt P48382: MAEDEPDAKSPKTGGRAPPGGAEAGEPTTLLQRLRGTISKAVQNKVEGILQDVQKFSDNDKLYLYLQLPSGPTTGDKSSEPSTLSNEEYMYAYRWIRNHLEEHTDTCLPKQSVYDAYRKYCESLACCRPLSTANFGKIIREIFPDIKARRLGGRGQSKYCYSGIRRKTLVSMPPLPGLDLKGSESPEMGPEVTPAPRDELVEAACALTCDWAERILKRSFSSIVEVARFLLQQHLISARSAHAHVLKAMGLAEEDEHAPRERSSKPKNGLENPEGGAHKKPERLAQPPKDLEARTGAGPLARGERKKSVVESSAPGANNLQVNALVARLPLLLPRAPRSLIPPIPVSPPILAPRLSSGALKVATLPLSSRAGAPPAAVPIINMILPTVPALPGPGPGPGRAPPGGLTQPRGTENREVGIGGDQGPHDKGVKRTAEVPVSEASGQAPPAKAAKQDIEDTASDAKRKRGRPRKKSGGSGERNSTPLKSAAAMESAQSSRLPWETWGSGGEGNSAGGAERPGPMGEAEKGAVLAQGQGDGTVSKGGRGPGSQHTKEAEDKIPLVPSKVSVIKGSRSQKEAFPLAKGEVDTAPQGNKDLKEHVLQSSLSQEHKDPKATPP
UniProt P20226: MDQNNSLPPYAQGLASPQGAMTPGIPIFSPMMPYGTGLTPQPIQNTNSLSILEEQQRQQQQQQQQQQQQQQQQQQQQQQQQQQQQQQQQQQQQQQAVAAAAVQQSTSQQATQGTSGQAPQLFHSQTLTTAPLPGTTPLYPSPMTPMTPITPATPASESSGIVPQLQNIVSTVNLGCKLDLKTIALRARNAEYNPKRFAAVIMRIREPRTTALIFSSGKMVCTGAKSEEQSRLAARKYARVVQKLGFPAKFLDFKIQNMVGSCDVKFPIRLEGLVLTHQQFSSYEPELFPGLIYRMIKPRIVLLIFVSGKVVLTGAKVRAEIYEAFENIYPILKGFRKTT
UniProt Q09472: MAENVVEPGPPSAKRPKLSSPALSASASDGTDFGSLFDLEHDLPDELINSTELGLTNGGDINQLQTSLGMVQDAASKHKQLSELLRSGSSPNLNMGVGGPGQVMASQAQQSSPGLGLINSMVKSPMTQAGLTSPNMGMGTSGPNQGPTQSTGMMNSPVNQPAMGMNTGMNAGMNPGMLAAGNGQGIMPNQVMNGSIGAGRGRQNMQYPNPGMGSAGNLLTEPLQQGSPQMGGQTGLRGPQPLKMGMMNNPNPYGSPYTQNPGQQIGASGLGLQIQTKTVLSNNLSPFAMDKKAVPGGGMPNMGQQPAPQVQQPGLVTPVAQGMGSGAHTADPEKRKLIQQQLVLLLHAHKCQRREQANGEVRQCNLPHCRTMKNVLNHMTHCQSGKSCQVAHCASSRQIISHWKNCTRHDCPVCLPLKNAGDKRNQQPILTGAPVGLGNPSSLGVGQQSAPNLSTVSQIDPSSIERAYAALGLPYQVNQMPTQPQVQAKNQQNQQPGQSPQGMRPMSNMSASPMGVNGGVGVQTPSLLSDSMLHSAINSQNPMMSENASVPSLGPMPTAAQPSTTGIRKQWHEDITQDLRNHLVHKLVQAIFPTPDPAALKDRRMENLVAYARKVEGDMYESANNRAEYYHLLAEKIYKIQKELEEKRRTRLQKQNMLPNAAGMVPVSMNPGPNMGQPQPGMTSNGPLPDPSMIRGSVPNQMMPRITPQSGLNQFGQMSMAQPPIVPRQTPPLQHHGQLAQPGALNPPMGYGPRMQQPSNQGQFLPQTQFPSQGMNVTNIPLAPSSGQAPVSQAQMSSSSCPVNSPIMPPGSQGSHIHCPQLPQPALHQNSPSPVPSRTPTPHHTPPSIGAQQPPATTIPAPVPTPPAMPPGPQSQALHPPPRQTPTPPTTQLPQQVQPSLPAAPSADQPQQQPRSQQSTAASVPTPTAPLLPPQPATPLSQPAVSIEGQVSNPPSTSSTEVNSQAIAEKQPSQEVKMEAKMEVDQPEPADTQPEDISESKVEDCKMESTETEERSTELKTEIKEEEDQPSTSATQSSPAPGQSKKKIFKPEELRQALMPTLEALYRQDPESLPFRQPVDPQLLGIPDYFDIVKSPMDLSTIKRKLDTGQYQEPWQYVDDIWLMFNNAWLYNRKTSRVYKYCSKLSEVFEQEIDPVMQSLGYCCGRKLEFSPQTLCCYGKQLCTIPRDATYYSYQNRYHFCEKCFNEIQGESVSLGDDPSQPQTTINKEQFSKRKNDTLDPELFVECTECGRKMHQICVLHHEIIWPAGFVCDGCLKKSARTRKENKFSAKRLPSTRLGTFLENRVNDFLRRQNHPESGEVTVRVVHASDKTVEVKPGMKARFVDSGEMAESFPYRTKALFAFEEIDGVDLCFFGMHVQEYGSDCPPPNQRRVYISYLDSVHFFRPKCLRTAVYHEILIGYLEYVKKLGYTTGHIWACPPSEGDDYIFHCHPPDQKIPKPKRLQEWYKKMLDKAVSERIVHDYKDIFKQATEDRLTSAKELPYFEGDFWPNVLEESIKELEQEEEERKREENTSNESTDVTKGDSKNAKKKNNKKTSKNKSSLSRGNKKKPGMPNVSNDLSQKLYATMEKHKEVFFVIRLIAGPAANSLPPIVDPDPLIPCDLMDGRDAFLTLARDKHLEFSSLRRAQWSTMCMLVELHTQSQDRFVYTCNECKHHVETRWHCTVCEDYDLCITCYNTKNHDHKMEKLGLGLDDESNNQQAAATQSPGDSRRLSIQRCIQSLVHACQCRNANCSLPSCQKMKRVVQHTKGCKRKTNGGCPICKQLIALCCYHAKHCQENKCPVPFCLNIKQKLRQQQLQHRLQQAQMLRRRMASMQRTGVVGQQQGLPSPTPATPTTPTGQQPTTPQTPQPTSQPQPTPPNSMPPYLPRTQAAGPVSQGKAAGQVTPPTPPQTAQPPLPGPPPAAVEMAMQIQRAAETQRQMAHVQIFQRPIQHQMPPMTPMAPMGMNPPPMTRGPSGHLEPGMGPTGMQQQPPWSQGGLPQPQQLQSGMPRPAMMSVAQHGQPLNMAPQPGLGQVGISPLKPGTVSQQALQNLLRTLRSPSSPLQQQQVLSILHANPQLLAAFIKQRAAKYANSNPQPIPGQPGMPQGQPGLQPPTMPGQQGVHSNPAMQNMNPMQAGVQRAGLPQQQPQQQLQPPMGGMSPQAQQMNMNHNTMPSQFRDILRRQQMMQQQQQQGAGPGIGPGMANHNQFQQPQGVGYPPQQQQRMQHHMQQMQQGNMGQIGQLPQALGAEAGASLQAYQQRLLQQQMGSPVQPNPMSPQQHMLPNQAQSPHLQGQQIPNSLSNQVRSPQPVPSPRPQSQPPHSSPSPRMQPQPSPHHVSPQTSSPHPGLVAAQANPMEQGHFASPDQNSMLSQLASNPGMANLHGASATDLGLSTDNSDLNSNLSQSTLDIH
UniProt P62195: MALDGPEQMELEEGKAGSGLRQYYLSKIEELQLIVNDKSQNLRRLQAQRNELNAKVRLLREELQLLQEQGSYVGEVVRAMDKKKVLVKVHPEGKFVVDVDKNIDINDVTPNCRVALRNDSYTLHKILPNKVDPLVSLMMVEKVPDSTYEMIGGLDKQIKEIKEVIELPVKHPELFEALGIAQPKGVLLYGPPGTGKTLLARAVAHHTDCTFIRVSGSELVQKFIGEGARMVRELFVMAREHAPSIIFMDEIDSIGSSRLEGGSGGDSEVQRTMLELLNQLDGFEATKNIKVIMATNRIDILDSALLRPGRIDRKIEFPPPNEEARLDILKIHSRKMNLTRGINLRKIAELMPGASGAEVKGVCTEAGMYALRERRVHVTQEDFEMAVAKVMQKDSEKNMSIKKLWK

Biological target: CIITA-∆36 (N-terminal deletion mutant of CIITA-FIII, I120E121 form) (human) (UniProt P33076)
Assay: co-IP; protein extracts of stably transfected HEK293-EBNA cells immunoprecipitated with CIITA-specific antiserum K5 and protein A-sepharose; SDS-PAGE (8% gel) and western blotting for the co-precipitated endogenous proteins

binding	Substance
binds	RFX5 subunit of the RFX complex (from UniProt P48382 1-616)
no binding	chromatin remodeling protein p400/Domino (from UniProt Q96L91 1-3159)
binds	TATA-box binding protein (TBP) (from UniProt P20226 1-339)
binds	coactivator p300 (from UniProt Q09472 1-2414)
binds	19S proteasome ATPase S8 (Sug1) (from UniProt P62195 1-406)
